In article PMC4595607, “mRNA export through an additional cap-binding complex consisting of NCBP1 and NCBP3” (Nature Communications, 2015):
No constants are given. Whether binding was seen depends on the method and setting. Binding seen in cells or lysates may run through a third protein. These calls come from enrichment with a bait or labelling near it, and not all partners need be listed. For some of these results: A no says only that the protein was not detected with the bait. Tags and fused reporters may be left off the sequences shown.

The chains behind the UniProt entries cited, without tags or fusion partners.
UniProt Q09161: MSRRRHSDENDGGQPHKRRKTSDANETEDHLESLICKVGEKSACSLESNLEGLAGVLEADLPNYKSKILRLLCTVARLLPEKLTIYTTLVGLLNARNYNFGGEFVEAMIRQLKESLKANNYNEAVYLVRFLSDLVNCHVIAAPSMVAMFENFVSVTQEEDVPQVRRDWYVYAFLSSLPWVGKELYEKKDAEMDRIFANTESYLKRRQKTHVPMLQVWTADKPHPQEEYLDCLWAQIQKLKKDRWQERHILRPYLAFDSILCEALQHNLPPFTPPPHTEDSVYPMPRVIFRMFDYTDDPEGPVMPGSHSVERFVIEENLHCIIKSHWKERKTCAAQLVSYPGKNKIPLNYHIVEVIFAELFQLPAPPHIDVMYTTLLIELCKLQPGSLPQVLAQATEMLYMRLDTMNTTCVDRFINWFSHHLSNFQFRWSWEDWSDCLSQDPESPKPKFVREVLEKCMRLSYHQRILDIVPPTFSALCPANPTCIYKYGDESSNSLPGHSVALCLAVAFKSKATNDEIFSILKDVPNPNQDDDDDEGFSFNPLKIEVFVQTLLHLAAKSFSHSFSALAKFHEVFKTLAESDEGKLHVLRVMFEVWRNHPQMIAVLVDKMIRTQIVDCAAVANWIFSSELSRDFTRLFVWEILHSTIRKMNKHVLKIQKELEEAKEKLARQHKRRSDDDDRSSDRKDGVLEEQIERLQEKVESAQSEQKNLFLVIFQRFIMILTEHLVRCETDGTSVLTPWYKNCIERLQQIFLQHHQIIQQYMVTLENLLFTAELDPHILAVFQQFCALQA
UniProt Q13838: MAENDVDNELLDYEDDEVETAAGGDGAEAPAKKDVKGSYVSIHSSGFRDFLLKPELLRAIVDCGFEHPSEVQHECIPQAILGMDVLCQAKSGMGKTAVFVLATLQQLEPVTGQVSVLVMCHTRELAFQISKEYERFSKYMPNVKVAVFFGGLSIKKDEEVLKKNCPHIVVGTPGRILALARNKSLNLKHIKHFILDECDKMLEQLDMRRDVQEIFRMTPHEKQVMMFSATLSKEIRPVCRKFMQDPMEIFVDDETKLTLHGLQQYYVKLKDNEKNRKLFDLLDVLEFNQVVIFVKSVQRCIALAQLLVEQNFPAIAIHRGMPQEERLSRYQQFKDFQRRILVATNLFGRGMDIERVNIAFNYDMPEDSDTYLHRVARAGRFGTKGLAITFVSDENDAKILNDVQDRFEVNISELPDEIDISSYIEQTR
UniProt Q9H814: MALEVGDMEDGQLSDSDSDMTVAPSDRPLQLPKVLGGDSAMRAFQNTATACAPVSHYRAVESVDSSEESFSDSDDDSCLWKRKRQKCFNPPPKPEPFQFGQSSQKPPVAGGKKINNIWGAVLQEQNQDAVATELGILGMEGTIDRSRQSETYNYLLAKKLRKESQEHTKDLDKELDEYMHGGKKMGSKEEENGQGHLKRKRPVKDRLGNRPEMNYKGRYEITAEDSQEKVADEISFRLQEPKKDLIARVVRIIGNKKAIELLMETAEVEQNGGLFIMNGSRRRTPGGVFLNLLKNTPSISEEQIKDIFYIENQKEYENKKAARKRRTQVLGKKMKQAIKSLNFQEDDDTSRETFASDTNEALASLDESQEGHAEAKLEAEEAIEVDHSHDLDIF
UniProt Q96A72: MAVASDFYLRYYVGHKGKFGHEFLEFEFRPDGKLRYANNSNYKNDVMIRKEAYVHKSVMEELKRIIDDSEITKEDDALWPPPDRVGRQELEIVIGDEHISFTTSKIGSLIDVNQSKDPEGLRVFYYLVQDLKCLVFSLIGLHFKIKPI

T1: GFP-tagged human NCBP2 (human) (UniProt P52298)
T1 sequence: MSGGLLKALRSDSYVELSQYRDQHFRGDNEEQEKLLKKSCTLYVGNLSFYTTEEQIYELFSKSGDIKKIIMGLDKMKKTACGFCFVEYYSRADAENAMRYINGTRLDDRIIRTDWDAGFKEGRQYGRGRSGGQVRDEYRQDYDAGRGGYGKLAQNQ

T2: GFP-tagged human C17orf85/NCBP3 (human) (UniProt Q53F19)
T2 sequence: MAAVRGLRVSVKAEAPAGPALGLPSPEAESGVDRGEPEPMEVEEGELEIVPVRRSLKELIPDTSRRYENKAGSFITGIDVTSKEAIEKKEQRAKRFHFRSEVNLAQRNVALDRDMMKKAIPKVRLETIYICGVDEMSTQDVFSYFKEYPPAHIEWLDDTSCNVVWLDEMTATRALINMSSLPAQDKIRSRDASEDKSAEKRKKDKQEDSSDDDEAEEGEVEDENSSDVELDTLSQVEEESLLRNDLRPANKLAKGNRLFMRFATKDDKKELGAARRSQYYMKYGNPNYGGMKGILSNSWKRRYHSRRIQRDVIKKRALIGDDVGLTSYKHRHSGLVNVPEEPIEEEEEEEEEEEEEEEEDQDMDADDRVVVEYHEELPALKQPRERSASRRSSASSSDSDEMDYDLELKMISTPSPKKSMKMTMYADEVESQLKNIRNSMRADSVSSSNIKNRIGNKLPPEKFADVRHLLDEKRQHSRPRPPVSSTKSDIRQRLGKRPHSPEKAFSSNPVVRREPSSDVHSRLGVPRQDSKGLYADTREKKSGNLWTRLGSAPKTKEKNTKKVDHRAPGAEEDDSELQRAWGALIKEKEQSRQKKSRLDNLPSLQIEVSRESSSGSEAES

B1: SAP18 (protein, UniProt O00422 1-153)
chain: MAVESRVTQEEIKKEPEKPIDREKTCPLLLRVFTTNNGRHHRMDEFSRGNVPSSELQIYTWMDATLKELTSLVKEVYPEARKKGTHFNFAIVFTDVKRPGYRVKEIGSTMSGRKGTDDSMTLQSQKFQIGDYLDIAITPPNRAPPPSGRMRPY
B2: ACIN1 (protein, UniProt Q9UKV3 1-1341)
chain: MWRRKHPRTSGGTRGVLSGNRGVEYGSGRGHLGTFEGRWRKLPKMPEAVGTDPSTSRKMAELEEVTLDGKPLQALRVTDLKAALEQRGLAKSGQKSALVKRLKGALMLENLQKHSTPHAAFQPNSQIGEEMSQNSFIKQYLEKQQELLRQRLEREAREAAELEEASAESEDEMIHPEGVASLLPPDFQSSLERPELELSRHSPRKSSSISEEKGDSDDEKPRKGERRSSRVRQARAAKLSEGSQPAEEEEDQETPSRNLRVRADRNLKTEEEEEEEEEEEEDDEEEEGDDEGQKSREAPILKEFKEEGEEIPRVKPEEMMDERPKTRSQEQEVLERGGRFTRSQEEARKSHLARQQQEKEMKTTSPLEEEEREIKSSQGLKEKSKSPSPPRLTEDRKKASLVALPEQTASEEETPPPLLTKEASSPPPHPQLHSEEEIEPMEGPAPAVLIQLSPPNTDADTRELLVSQHTVQLVGGLSPLSSPSDTKAESPAEKVPEESVLPLVQKSTLADYSAQKDLEPESDRSAQPLPLKIEELALAKGITEECLKQPSLEQKEGRRASHTLLPSHRLKQSADSSSSRSSSSSSSSSRSRSRSPDSSGSRSHSPLRSKQRDVAQARTHANPRGRPKMGSRSTSESRSRSRSRSRSASSNSRKSLSPGVSRDSSTSYTETKDPSSGQEVATPPVPQLQVCEPKERTSTSSSSVQARRLSQPESAEKHVTQRLQPERGSPKKCEAEEAEPPAATQPQTSETQTSHLPESERIHHTVEEKEEVTMDTSENRPENDVPEPPMPIADQVSNDDRPEGSVEDEEKKESSLPKSFKRKISVVSATKGVPAGNSDTEGGQPGRKRRWGASTATTQKKPSISITTESLKSLIPDIKPLAGQEAVVDLHADDSRISEDETERNGDDGTHDKGLKICRTVTQVVPAEGQENGQREEEEEEKEPEAEPPVPPQVSVEVALPPPAEHEVKKVTLGDTLTRRSISQQKSGVSITIDDPVRTAQVPSPPRGKISNIVHISNLVRPFTLGQLKELLGRTGTLVEEAFWIDKIKSHCFVTYSTVEEAVATRTALHGVKWPQSNPKFLCADYAEQDELDYHRGLLVDRPSETKTEEQGIPRPLHPPPPPPVQPPQHPRAEQREQERAVREQWAEREREMERRERTRSEREWDRDKVREGPRSRSRSRDRRRKERAKSKEKKSEKKEKAQEEPPAKLLDDLFRKTKAAPCIYWLPLTDSQIVQKEAERAERAKEREKRRKEQEEEEQKEREKEAERERNRQLEREKRREHSRERDRERERERERDRGDRDRDRERDRERGRERDRRDTKRHSRSRSRSTPVRDRGGRR
B3: THOC1 (protein, UniProt Q96FV9 1-657)
chain: MSPTPPLFSLPEARTRFTKSTREALNNKNIKPLLSTFSQVPGSENEKKCTLDQAFRGILEEEIINHSSCENVLAIISLAIGGVTEGICTASTPFVLLGDVLDCLPLDQCDTIFTFVEKNVATWKSNTFYSAGKNYLLRMCNDLLRRLSKSQNTVFCGRIQLFLARLFPLSEKSGLNLQSQFNLENVTVFNTNEQESTLGQKHTEDREEGMDVEEGEMGDEEAPTTCSIPIDYNLYRKFWSLQDYFRNPVQCYEKISWKTFLKYSEEVLAVFKSYKLDDTQASRKKMEELKTGGEHVYFAKFLTSEKLMDLQLSDSNFRRHILLQYLILFQYLKGQVKFKSSNYVLTDEQSLWIEDTTKSVYQLLSENPPDGERFSKMVEHILNTEENWNSWKNEGCPSFVKERTSDTKPTRIIRKRTAPEDFLGKGPTKKILMGNEELTRLWNLCPDNMEACKSETREHMPTLEEFFEEAIEQADPENMVENEYKAVNNSNYGWRALRLLARRSPHFFQPTNQQFKSLPEYLENMVIKLAKELPPPSEEIKTGEDEDEEDNDALLKENESPDVRRDKPVTGEQIEVFANKLGEQWKILAPYLEMKDSEIRQIECDSEDMKMRAKQLLVAWQDQEGVHATPENLINALNKSGLSDLAESLTNDNETNS
B4: THOC3 (protein, UniProt Q96J01 1-351)
chain: MAVPAAAMGPSALGQSGPGSMAPWCSVSSGPSRYVLGMQELFRGHSKTREFLAHSAKVHSVAWSCDGRRLASGSFDKTASVFLLEKDRLVKENNYRGHGDSVDQLCWHPSNPDLFVTASGDKTIRIWDVRTTKCIATVNTKGENINICWSPDGQTIAVGNKDDVVTFIDAKTHRSKAEEQFKFEVNEISWNNDNNMFFLTNGNGCINILSYPELKPVQSINAHPSNCICIKFDPMGKYFATGSADALVSLWDVDELVCVRCFSRLDWPVRTLSFSHDGKMLASASEDHFIDIAEVETGDKLWEVQCESPTFTVAWHPKRPLLAFACDDKDGKYDSSREAGTVKLFGLPNDS
B5: THOC5 (protein, UniProt Q13769 1-683)
chain: MSSESSKKRKPKVIRSDGAPAEGKRNRSDTEQEGKYYSEEAEVDLRDPGRDYELYKYTCQELQRLMAEIQDLKSRGGKDVAIEIEERRIQSCVHFMTLKKLNRLAHIRLKKGRDQTHEAKQKVDAYHLQLQNLLYEVMHLQKEITKCLEFKSKHEEIDLVSLEEFYKEAPPDISKAEVTMGDPHQQTLARLDWELEQRKRLAEKYRECLSNKEKILKEIEVKKEYLSSLQPRLNSIMQASLPVQEYLFMPFDQAHKQYETARHLPPPLYVLFVQATAYGQACDKTLSVAIEGSVDEAKALFKPPEDSQDDESDSDAEEEQTTKRRRPTLGVQLDDKRKEMLKRHPLSVMLDLKCKDDSVLHLTFYYLMNLNIMTVKAKVTTAMELITPISAGDLLSPDSVLSCLYPGDHGKKTPNPANQYQFDKVGILTLSDYVLELGHPYLWVQKLGGLHFPKEQPQQTVIADHSLSASHMETTMKLLKTRVQSRLALHKQFASLEHGIVPVTSDCQYLFPAKVVSRLVKWVTVAHEDYMELHFTKDIVDAGLAGDTNLYYMALIERGTAKLQAAVVLNPGYSSIPPVFQLCLNWKGEKTNSNDDNIRAMEGEVNVCYKELCGPWPSHQLLTNQLQRLCVLLDVYLETESHDDSVEGPKEFPQEKMCLRLFRGPSRMKPFKYNHPQGFFSHR
B6: THOC6 (protein, UniProt Q86W42 1-341)
chain: MERAVPLAVPLGQTEVFQALQRLHMTIFSQSVSPCGKFLAAGNNYGQIAIFSLSSALSSEAKEESKKPVVTFQAHDGPVYSMVSTDRHLLSAGDGEVKAWLWAEMLKKGCKELWRRQPPYRTSLEVPEINALLLVPKENSLILAGGDCQLHTMDLETGTFTRVLRGHTDYIHCLALRERSPEVLSGGEDGAVRLWDLRTAKEVQTIEVYKHEECSRPHNGRWIGCLATDSDWMVCGGGPALTLWHLRSSTPTTIFPIRAPQKHVTFYQDLILSAGQGRCVNQWQLSGELKAQVPGSSPGLLSLSLNQQPAAPECKVLTAAGNSCRVDVFTNLGYRAFSLSF
B7: THOC7 (protein, UniProt Q6I9Y2 1-204)
chain: MGAVTDDEVIRKRLLIDGDGAGDDRRINLLVKSFIKWCNSGSQEEGYSQYQRMLSTLSQCEFSMGKTLLVYDMNLREMENYEKIYKEIECSIAGAHEKIAECKKQILQAKRIRKNRQEYDALAKVIQHHPDRHETLKELEALGKELEHLSHIKESVEDKLELRRKQFHVLLSTIHELQQTLENDEKLSEVEEAQEASMETDPKP

What was measured:
[1] = target: T1, GFP-tagged human NCBP2 (human); assay: affinity purification with mass spectrometry; GFP-Trap beads; lysates of HeLa cells stably expressing GFP-tagged NCBP3, NCBP2 or RAB5C (control); lysate sonicated and treated with Benzonase; TAP buffer; label-free quantification against the control
[2] = target: T2, GFP-tagged human C17orf85/NCBP3 (human); assay: as above

Molecule	binding [1]	binding [2]
NCBP1 (from UniProt Q09161 1-790)	binds	binds
DDX39B (from UniProt Q13838 1-428)		binds
phosphorylated adaptor for RNA export (PHAX) (from UniProt Q9H814 1-394)	binds	no binding
MAGOHB (from UniProt Q96A72 1-148)		binds
B1		binds
B2		binds
B3		binds
B4		binds
B5		binds
B6		binds
B7		binds
